The chains are these.
B1: glmS ribozyme (parent)
chain: AUAAAAGCGCCAGAACUACAGAAAUGUAGUUGACGAGGAGGAGGUUUAUCGAAUUUUCGGCGGAUGCCUCCAAA

± gives the standard error. Many of these values have a large error.

The variants in one data set derive from B1. Put plainly: self-cleavage kobs at 640 uM GlcN6P; higher = faster cleavage; RNA array. The note with it: with glucosamine-6-phosphate. The procedure, abridged: (§1)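 Glucosamine-6-phosphate in HEPES/KCl/Mg(OAc)2 buffer, at 40 μM to 10 mM, was flowed over barcoded ribozyme variants transcribed in situ by E. coli RNA polymerase on sequenced MiSeq chips. Tracking was through a hybridised Cy3 probe at 37 °C. kobs, kcat and KM came from exponential decay fits and weighted Michaelis–Menten fits of normalised per-tile medians.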
As for C50A C67G, the “self-cleavage kobs at 640 uM GlcN6P” value was found to be 0.000223 ± 0.00013 s⁻¹.

As for A15G G37U C61A C68A C70G, the “self-cleavage kobs at 640 uM GlcN6P” value was 5.68e-05 ± 2.9e-05 s⁻¹.

A14U U54A U56A C68A: the “self-cleavage kobs at 640 uM GlcN6P” value was determined as 2.85e-05 ± 2.6e-05 s⁻¹.

As for A36U A64G C68G, the “self-cleavage kobs at 640 uM GlcN6P” value is 4.2e-05 ± 3.1e-05 s⁻¹.

Turning to A48G U49A C68G, the “self-cleavage kobs at 640 uM GlcN6P” value was 3.13e-05 ± 2.4e-05 s⁻¹.

On to A36U C58G C70A, for which the “self-cleavage kobs at 640 uM GlcN6P” value is 4.83e-05 ± 2.4e-05 s⁻¹.

For the variant C16U C50G U55C, the “self-cleavage kobs at 640 uM GlcN6P” value was determined as 0.000706 ± 0.00042 s⁻¹.

Regarding A12G A14U G66A, the “self-cleavage kobs at 640 uM GlcN6P” value was 1.85e-05 ± 1.2e-05 s⁻¹.

C50U U69C: the “self-cleavage kobs at 640 uM GlcN6P” value amounted to 2.17e-05 ± 1.3e-05 s⁻¹.

Turning to U55G A64U, the “self-cleavage kobs at 640 uM GlcN6P” value was determined as 1.55e-05 ± 9.9e-06 s⁻¹.

Consider U57A C68A, for which the “self-cleavage kobs at 640 uM GlcN6P” value worked out at 3.26e-05 ± 2.7e-05 s⁻¹.

For C16G C70A C71U, the “self-cleavage kobs at 640 uM GlcN6P” value was found to be 4.48e-05 ± 3.2e-05 s⁻¹.

Take A36C C67G: the “self-cleavage kobs at 640 uM GlcN6P” value was 0.000321 ± 0.00024 s⁻¹.

Consider A15C U30A U31C A48U, for which the “self-cleavage kobs at 640 uM GlcN6P” value turned out to be 2.3e-05 ± 2e-05 s⁻¹.

Regarding C11G C61A C68A, the “self-cleavage kobs at 640 uM GlcN6P” value came out at 3.62e-05 ± 2.5e-05 s⁻¹.

Consider A14U U69G, for which the “self-cleavage kobs at 640 uM GlcN6P” value stood at 0.00177 ± 0.00094 s⁻¹.

On to C58U G59U C67A, for which the “self-cleavage kobs at 640 uM GlcN6P” value was found to be 2.59e-05 ± 2e-05 s⁻¹.

On to A48U G66A, for which the “self-cleavage kobs at 640 uM GlcN6P” value is 3.45e-05 ± 1.8e-05 s⁻¹.

Turning to G37U C50A G59A C71G, the “self-cleavage kobs at 640 uM GlcN6P” value was determined as 4.36e-05 ± 2.2e-05 s⁻¹.

Consider G29C G32U U56C, for which the “self-cleavage kobs at 640 uM GlcN6P” value is 3.28e-05 ± 3.2e-05 s⁻¹.

Take A53G C58U C70A: the “self-cleavage kobs at 640 uM GlcN6P” value turned out to be 4.6e-05 ± 2.3e-05 s⁻¹.

Take A42G U45A: the “self-cleavage kobs at 640 uM GlcN6P” value came to 0.0159 ± 0.0095 s⁻¹.

With U47C C58G, the “self-cleavage kobs at 640 uM GlcN6P” value was 1.44e-05 ± 1.4e-05 s⁻¹.

C16G G29A U57A C67G: the “self-cleavage kobs at 640 uM GlcN6P” value is 0.000318 ± 0.00016 s⁻¹.

As for C16A G29U C68U C71U, the “self-cleavage kobs at 640 uM GlcN6P” value was found to be 2.66e-05 ± 1.8e-05 s⁻¹.

For A53G G63C C70A, the “self-cleavage kobs at 640 uM GlcN6P” value amounted to 2.86e-05 ± 2.4e-05 s⁻¹.

As to G13A A39C, the “self-cleavage kobs at 640 uM GlcN6P” value was determined as 2.89e-05 ± 1.6e-05 s⁻¹.

As for G13A A39G, the “self-cleavage kobs at 640 uM GlcN6P” value came out at 0.00012 ± 6.3e-05 s⁻¹.

In the case of U57A U69A, the “self-cleavage kobs at 640 uM GlcN6P” value is 2.79e-05 ± 1.9e-05 s⁻¹.

A52G U57G C58U: the “self-cleavage kobs at 640 uM GlcN6P” value came out at 3.67e-05 ± 2.3e-05 s⁻¹.

For A12G G37A, the “self-cleavage kobs at 640 uM GlcN6P” value is 2.06e-05 ± 1.6e-05 s⁻¹.

Regarding U46A C68A, the “self-cleavage kobs at 640 uM GlcN6P” value was 3.48e-05 ± 3.3e-05 s⁻¹.

For G35C U49G C50G C70G, the “self-cleavage kobs at 640 uM GlcN6P” value was found to be 5.15e-05 ± 3.7e-05 s⁻¹.

In the case of C50G C58U, the “self-cleavage kobs at 640 uM GlcN6P” value worked out at 2.92e-05 ± 1.6e-05 s⁻¹.

As for G29U U31A U69G C70A, the “self-cleavage kobs at 640 uM GlcN6P” value worked out at 9.23e-05 ± 5.6e-05 s⁻¹.

Variants of B1 are the subject of a further data set. Briefly: self-cleavage kobs at 160 uM GlcN6P; higher = faster cleavage; RNA array. The following applies: with glucosamine-6-phosphate. The procedure, abridged:
as §1
For the variant C50A C67G, the “self-cleavage kobs at 160 uM GlcN6P” value was 2.04e-05 ± 1.2e-05 s⁻¹.

For the variant U57A C68A, the “self-cleavage kobs at 160 uM GlcN6P” value is 2.02e-05 ± 1.8e-05 s⁻¹.

A53G C58U C70A: the “self-cleavage kobs at 160 uM GlcN6P” value is 3.63e-05 ± 2.3e-05 s⁻¹.

As to A53G G63C C70A, the “self-cleavage kobs at 160 uM GlcN6P” value worked out at 3.33e-05 ± 2.8e-05 s⁻¹.

U57A U69A: the “self-cleavage kobs at 160 uM GlcN6P” value amounted to 2.07e-05 ± 1.5e-05 s⁻¹.

The next data set covers variants of B1. Briefly: self-cleavage kobs at 10000 uM GlcN6P; higher = faster cleavage; RNA array. The note with it: with glucosamine-6-phosphate. The procedure, abridged:
as §1
As to C50A C67G, the “self-cleavage kobs at 10000 uM GlcN6P” value was determined as 1.44e-05 ± 9.4e-06 s⁻¹.

C50U U69C: the “self-cleavage kobs at 10000 uM GlcN6P” value amounted to 1.62e-05 ± 1.1e-05 s⁻¹.

As for A42G U45A, the “self-cleavage kobs at 10000 uM GlcN6P” value came out at 0.0116 ± 0.0073 s⁻¹.

Turning to C50G C58U, the “self-cleavage kobs at 10000 uM GlcN6P” value is 2.05e-05 ± 1e-05 s⁻¹.

Variants of B1 are the subject of another data set. Put plainly: self-cleavage kobs at 2500 uM GlcN6P; higher = faster cleavage; RNA array. The note with it: with glucosamine-6-phosphate. The procedure, abridged:
as §1
Take U57A C68A: the “self-cleavage kobs at 2500 uM GlcN6P” value turned out to be 2.53e-05 ± 2e-05 s⁻¹.

For the variant C16G C70A C71U, the “self-cleavage kobs at 2500 uM GlcN6P” value is 2.73e-05 ± 2.4e-05 s⁻¹.

In the case of A42G U45A, the “self-cleavage kobs at 2500 uM GlcN6P” value came out at 0.03 ± 0.015 s⁻¹.

On to C16G G29A U57A C67G, for which the “self-cleavage kobs at 2500 uM GlcN6P” value is 3.68e-05 ± 1.9e-05 s⁻¹.

For G13A A39G, the “self-cleavage kobs at 2500 uM GlcN6P” value was found to be 0.000578 ± 0.00032 s⁻¹.

Source of the values: the supplement of paper PMC7125110.
